Source: ChEMBL document CHEMBL5528009, “Benzothiozinone derivatives with anti-tubercular Activity-Further side chain investigation” (Eur J Med Chem, 2024)

Assay: Metabolic stability in NADPH-fortified human liver microsomes assessed as CYP450-mediated stability by measuring half-life incubated for 120 mins by LC/MS analysis

## Cc1ncc2n1-c1ccc(Cl)cc1C(c1ccccc1F)=NC2 [MIDAZOLAM]
  half-life at 2 h: 6.6 min
